Assay results published in paper PMC3233385.
Construct, isoform or probe ends are uncertain for at least one entry. At least one result comes from cells or an extract, where the contact may be indirect. For some assays here: A negative result means that nothing was seen under these conditions. For some assays here: Tags and fusion partners may be left off the protein sequences shown.

Assays:
[1] = target: T1, HSF4b wild type (Mus musculus) (UniProt Q9R0L1); assay: EMSA; details: supershift with anti-His, competed by cold HSE; Promega Gel Shift Assay System buffer (composition not given); 20 min at RT; 4% acrylamide gel (40:1) in 1x TAE at RT, 250 V, 1 h; protein in a lysate after overexpression; residues 1-492; protein details: N-terminal His (pcDNA4/HisMax TOPO); label: 32P (gamma-32P ATP labeling)
T1 sequence (looked up): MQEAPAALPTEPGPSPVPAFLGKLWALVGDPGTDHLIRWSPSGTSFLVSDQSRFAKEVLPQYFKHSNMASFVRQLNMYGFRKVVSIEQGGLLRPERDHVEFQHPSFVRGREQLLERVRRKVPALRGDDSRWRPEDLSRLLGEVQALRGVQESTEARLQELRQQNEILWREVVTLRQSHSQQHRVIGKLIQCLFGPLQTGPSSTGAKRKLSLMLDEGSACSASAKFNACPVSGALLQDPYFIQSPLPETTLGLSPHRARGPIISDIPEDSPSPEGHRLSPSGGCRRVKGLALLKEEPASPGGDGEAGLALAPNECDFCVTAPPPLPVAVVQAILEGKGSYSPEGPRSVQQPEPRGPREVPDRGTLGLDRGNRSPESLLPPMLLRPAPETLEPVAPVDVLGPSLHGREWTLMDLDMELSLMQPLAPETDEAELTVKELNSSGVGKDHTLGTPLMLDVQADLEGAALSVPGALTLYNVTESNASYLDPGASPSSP

[2] = target: HSF4b lop11 (Mus musculus (lop11)) (UniProt Q9R0L1); assay: EMSA; details: Promega Gel Shift Assay System buffer (composition not given); 20 min at RT; 4% acrylamide gel (40:1) in 1x TAE at RT, 250 V, 1 h; protein in a lysate after overexpression; protein details: N-terminal His (pcDNA4/HisMax TOPO); label: 32P (gamma-32P ATP labeling)

Sequence: TGACCTCACCATTCCAGAAGCTTCAGAAGA (double strand) [HSE oligo (alphaB-crystallin promoter)]
- binding result [1]: binds
- binding result [2]: no binding
